The text below walks through data of patent US20220175895A1.

Sequences of proteins named here, by UniProt entry; tags and fusion partners are left off.
UniProt Q8NEB9: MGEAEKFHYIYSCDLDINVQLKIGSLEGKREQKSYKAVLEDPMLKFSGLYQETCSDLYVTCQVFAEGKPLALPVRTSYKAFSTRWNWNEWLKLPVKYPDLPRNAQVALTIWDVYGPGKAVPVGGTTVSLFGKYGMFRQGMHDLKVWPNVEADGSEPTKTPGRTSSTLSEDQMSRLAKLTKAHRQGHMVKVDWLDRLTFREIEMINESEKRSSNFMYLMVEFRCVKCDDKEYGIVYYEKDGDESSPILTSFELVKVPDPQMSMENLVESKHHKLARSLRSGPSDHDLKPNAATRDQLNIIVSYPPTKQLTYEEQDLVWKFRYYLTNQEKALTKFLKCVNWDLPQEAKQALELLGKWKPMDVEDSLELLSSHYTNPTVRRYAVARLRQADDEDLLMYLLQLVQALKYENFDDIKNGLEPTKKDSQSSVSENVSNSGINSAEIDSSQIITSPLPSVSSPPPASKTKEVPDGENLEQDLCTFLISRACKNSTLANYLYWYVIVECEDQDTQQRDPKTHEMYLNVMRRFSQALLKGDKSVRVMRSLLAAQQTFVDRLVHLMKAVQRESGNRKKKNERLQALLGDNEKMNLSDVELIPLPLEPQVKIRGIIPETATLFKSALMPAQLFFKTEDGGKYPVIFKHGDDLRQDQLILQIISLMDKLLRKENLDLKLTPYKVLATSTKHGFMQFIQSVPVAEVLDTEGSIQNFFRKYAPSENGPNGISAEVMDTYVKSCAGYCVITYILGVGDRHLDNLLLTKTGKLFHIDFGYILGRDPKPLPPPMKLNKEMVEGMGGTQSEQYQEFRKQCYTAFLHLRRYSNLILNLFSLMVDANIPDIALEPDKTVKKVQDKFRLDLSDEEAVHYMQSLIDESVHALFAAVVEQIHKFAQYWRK
UniProt Q15386: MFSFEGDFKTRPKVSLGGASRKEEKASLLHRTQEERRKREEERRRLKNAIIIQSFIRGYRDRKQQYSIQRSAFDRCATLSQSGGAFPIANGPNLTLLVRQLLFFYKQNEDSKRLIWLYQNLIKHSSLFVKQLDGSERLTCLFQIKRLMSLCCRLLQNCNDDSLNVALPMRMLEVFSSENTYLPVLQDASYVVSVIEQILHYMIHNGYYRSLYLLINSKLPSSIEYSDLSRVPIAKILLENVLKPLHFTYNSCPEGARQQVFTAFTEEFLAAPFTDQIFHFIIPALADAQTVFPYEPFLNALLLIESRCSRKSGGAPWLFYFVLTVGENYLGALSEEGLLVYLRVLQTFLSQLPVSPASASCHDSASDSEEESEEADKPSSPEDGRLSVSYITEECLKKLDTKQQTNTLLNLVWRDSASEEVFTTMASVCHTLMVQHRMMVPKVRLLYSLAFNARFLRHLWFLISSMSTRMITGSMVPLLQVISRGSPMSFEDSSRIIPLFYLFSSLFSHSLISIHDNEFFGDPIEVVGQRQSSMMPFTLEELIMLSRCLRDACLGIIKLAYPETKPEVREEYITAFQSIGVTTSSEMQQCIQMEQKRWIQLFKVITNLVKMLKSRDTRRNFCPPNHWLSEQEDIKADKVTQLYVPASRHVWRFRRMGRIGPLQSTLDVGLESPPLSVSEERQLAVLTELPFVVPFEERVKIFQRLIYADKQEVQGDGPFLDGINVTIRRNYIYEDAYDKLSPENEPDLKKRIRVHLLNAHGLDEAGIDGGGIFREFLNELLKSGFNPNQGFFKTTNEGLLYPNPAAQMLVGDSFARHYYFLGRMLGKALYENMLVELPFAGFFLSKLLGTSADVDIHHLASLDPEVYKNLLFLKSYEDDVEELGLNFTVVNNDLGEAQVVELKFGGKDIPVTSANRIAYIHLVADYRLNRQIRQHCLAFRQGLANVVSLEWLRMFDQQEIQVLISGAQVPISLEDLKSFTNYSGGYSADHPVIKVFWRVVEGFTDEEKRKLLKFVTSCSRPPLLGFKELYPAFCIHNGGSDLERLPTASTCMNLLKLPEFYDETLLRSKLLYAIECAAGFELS

The target of assay [1] is Flag-VPS34 (UniProt Q8NEB9). Kind of assay: in vitro pull-down, Western blot (FIG. 3B).
In assay [2] the target is Flag-VPS34 (UniProt Q8NEB9). As to the kind of experiment: in vitro pull-down, Flag-VPS34 on anti-Flag M2 beads with purified HA-UBE3C, Western blot (FIG. 3B). On the technique in general: Immunoblotting shows a protein as a band on a membrane.

No constants are given. Whether binding was seen depends on the method and setting. In cells and extracts the contact can be indirect. Some binding calls cover weakened binding; strength is not graded here.

Take “HA-UBE3C (from UniProt Q15386 1-1083) (enzyme)”: the binding result in assay [1] and in assay [2] was “binds” each time.
